Data published in US20060024313A1, “Agents that disrupt dimer formation in DPP-IV family of prolyl dipeptidases” (priority 2004, published 2006).
Results are given in words; binding and its absence hold for the method and conditions named. Some results given as binding are weak or reduced against the parent protein; the word gives no strength.

Amino acid sequences for entries named in this document (tags omitted). Residues count along the entry.
UniProt P27487, residues 39-766: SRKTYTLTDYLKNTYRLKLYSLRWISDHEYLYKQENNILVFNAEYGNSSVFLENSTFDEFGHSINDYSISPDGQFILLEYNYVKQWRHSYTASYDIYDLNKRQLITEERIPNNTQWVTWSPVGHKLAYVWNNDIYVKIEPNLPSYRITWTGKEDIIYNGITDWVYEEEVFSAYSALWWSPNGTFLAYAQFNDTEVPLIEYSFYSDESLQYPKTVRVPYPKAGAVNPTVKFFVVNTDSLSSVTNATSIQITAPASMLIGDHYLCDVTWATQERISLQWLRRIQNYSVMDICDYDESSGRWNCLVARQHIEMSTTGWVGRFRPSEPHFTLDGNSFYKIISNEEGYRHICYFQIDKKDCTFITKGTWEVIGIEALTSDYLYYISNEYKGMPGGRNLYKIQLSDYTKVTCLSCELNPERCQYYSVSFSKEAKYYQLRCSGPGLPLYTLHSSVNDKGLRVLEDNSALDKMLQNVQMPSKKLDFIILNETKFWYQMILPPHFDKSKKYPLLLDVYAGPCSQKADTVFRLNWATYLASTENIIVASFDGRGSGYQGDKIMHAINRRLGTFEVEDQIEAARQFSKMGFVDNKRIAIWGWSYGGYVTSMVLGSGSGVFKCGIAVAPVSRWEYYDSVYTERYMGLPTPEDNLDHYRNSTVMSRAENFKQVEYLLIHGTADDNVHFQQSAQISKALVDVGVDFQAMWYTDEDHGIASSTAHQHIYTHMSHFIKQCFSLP

How the values were obtained:
[1] = target: DPP 8 (UniProt Q6V1X1); test: analytical ultracentrifugation (self-association)
[2] = target: DPP 8 (UniProt Q6V1X1); test: analytical ultracentrifugation, figure legend (self-association)
[3] = target: T1, Bovine adenosine deaminase (ADA) (bovine) (UniProt P56658); test: ADA affinity column purification
T1 sequence (coupled to CNBr-activated Sepharose 4B (affinity column), looked up): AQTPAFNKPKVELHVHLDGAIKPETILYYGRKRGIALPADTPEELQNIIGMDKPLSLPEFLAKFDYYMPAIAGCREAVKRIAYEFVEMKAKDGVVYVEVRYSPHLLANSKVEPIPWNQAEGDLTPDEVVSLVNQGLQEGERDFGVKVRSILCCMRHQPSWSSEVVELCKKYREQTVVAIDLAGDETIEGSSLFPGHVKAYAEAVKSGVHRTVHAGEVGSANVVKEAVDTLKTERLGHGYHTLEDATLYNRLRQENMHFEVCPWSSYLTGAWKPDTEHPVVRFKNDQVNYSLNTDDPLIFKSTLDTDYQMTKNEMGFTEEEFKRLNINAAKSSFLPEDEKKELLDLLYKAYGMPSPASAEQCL

| Substance | binding [1] | binding [2] | binding [3] |
| --- | --- | --- | --- |
| DPP 8 (from UniProt Q6V1X1 1-882) (enzyme) | binds | binds | – |
| endogenous DPP-IV purified from human semen (sDPP-IV) (from UniProt P27487 39-766) (enzyme) | – | – | binds |
